Experimental data: US6596271B2, “Insect control method with genetically engineered biopesticides” (priority 1996, dated 2003)

System: neonate larvae of H. virescens
Test: Time-response of neonate larvae to NPVs with low concentrations of classical insecticides (droplet feeding, treated vials)
Assay type: in vivo, Heliothis virescens
Details: log-probit time-response; 2000 PIBs and/or LC10-LC20 (24 h) insecticide
Source text: For example, two of the compounds studied were pyrethroids, […]. In our study we found a subadditive response when low rates of allethrin or cypermethrin were combined with wild-type AcNPV.

| Structure (SMILES) | Slope ± SE |
| --- | --- |
| CC1(C)C(C=C(Cl)Cl)C1C(=O)OC(C#N)c1cccc(Oc2ccccc2)c1 (centres unmarked) [Cypermethrin] | 1.49 ± 0.24 |
| Clc1ccc(C(c2ccc(Cl)cc2)C(Cl)(Cl)Cl)cc1 [DDT] | 1.45 ± 0.30 |
| CNC(=O)ON=C(C)SC [Methomyl] | 0.69 ± 0.20 |
| CCCSP(=O)(OCC)Oc1ccc(Br)cc1Cl (centres unmarked) [Profenofos] | 0.76 ± 0.19 |
| C=CCC1=C(C)C(OC(=O)C2C(C=C(C)C)C2(C)C)CC1=O (centres unmarked) [Allethrin] | 1.46 ± 0.19 |
